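Malaria parasite (P. falciparum) lines kept in red blood cells; parasite DNA is measured by SYBR Green fluorescence after lysis, 72 h after compound addition.
Each compound was titrated across a series from about 0.000037 to 29 µM.
The number is the fitted AC50, the concentration giving a half-maximal change in signal; a lower value means higher potency, whether the curve shows a decrease or an increase.
Calls follow the curve class and fit quality: every row here is inconclusive, covering signal-raising curves and weak, poorly fitted, partial or highest-dose-only inhibition curves.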

Values are in µM.
All entries here are filed as inconclusive.
Only part of the assay is shown, chiefly results filed as inconclusive.
A potency from a partial, single-point or poor curve is only a rough figure.
Some entries filed as inconclusive have a full curve.
The first word of each remark tells which way the curve ran; it can be opposite to the aim of the assay.

Result for Cc1cc(=O)c2c(O)c3c(O)cc(=O)c4c3c3c(cc(O)c1c23)C(C)(C)C=4O [CP262] was potency 2.133 µM (inhibitor, full curve). Result for Cc1cc(=O)c2c(O)c3c(O)cc(=O)c4c3c3c(cc(O)c1c23)C(C)(C)C=4O [JCK] was potency 10 µM (inhibitor, single point). For O=C(c1ccc(F)cc1)C1CCN(CCn2c(=O)[nH]c3ccccc3c2=O)CC1 [Dd2] the result was potency 3.162 µM (inhibitor, single point). O=C(c1ccc(F)cc1)C1CCN(CCn2c(=O)[nH]c3ccccc3c2=O)CC1 [DIV17] read potency 1.2 µM (inhibitor, partial curve). With O=C(c1ccc(F)cc1)C1CCN(CCn2c(=O)[nH]c3ccccc3c2=O)CC1 [CP191] the assay gave potency 1.259 µM (inhibitor, partial curve). For O=C(c1ccc(F)cc1)C1CCN(CCn2c(=O)[nH]c3ccccc3c2=O)CC1 [CP305] the result was potency 4.256 µM (inhibitor, single point). O=C(c1ccc(F)cc1)C1CCN(CCn2c(=O)[nH]c3ccccc3c2=O)CC1 [P94_40] gave potency 3.548 µM (inhibitor, single point).

O=C(c1ccc(F)cc1)C1CCN(CCn2c(=O)[nH]c3ccccc3c2=O)CC1 [W2] read potency 2.133 µM (inhibitor, single point). O=C(c1ccc(F)cc1)C1CCN(CCn2c(=O)[nH]c3ccccc3c2=O)CC1 [CP268] gave potency 4.776 µM (inhibitor, single point). With O=C(c1ccc(F)cc1)C1CCN(CCn2c(=O)[nH]c3ccccc3c2=O)CC1 [CP250] the assay gave potency 3.162 µM (inhibitor, single point). O=C(c1ccc(F)cc1)C1CCN(CCn2c(=O)[nH]c3ccccc3c2=O)CC1 [CP247] gave potency 1 µM (inhibitor, partial curve). O=C(c1ccc(F)cc1)C1CCN(CCn2c(=O)[nH]c3ccccc3c2=O)CC1 [DIV14] gave potency 1.069 µM (inhibitor, partial curve). O=C(c1ccc(F)cc1)C1CCN(CCn2c(=O)[nH]c3ccccc3c2=O)CC1 [CP291] gave potency 1.901 µM (inhibitor, partial curve, poor fit). O=C(c1ccc(F)cc1)C1CCN(CCn2c(=O)[nH]c3ccccc3c2=O)CC1 [CP215] read potency 4.256 µM (inhibitor, partial curve, poor fit).

O=C(c1ccc(F)cc1)C1CCN(CCn2c(=O)[nH]c3ccccc3c2=O)CC1 [CP286] read potency 2.239 µM (inhibitor, single point). With Cc1cc(CC(=O)O)n(C)c1C(=O)c1ccc(Cl)cc1 [CP315] the assay gave potency 4.776 µM (inhibitor, partial curve, poor fit). With Cc1cc(CC(=O)O)n(C)c1C(=O)c1ccc(Cl)cc1 [DIV17] the assay gave potency 19.01 µM (inhibitor, single point). With Cc1cc(CC(=O)O)n(C)c1C(=O)c1ccc(Cl)cc1 [DIV14] the assay gave potency 19.01 µM (inhibitor, single point). Cc1cc(CC(=O)O)n(C)c1C(=O)c1ccc(Cl)cc1 [CP192] gave potency 0.0012 µM (activator, full curve, poor fit). CN1CCC(OC(c2ccccc2)c2ccccc2)CC1 [PC49] read potency 2.512 µM (inhibitor, partial curve). CN1CCC(OC(c2ccccc2)c2ccccc2)CC1 [CP256] read potency 2.512 µM (inhibitor, partial curve, poor fit).

With CN1CCC(OC(c2ccccc2)c2ccccc2)CC1 [CP268] the assay gave potency 8.087 µM (inhibitor, partial curve, poor fit). For CN1CCC(OC(c2ccccc2)c2ccccc2)CC1 [TAB109] the result was potency 3.548 µM (inhibitor, partial curve). Result for CN1CCC(OC(c2ccccc2)c2ccccc2)CC1 [CP262] was potency 8.087 µM (inhibitor, single point). Result for CN1CCC(OC(c2ccccc2)c2ccccc2)CC1 [CP291] was potency 5.103 µM (inhibitor, single point). With CN1CCC(OC(c2ccccc2)c2ccccc2)CC1 [CP305] the assay gave potency 5.726 µM (inhibitor, partial curve, poor fit). CN1CCC(OC(c2ccccc2)c2ccccc2)CC1 [CP211] read potency 3.22 µM (inhibitor, partial curve, poor fit). For CN1CCC(OC(c2ccccc2)c2ccccc2)CC1 [AS120] the result was potency 4.467 µM (inhibitor, single point).

CN1CCC(OC(c2ccccc2)c2ccccc2)CC1 [CP238] gave potency 3.162 µM (inhibitor, partial curve). With O=C(O)c1nc(=O)[nH]c(=O)[nH]1 [CP315] the assay gave potency 4.256 µM (inhibitor, single point). For O=C(O)c1nc(=O)[nH]c(=O)[nH]1 [CP215] the result was potency 13.46 µM (inhibitor, single point). O=C(O)c1nc(=O)[nH]c(=O)[nH]1 [CP335] gave potency 4.256 µM (inhibitor, single point).

Once more, the final 4:

- CN1CCC(OC(c2ccccc2)c2ccccc2)CC1 [CP238] | potency 3.162 µM (inhibitor, partial curve)
- O=C(O)c1nc(=O)[nH]c(=O)[nH]1 [CP315] | potency 4.256 µM (inhibitor, single point)
- O=C(O)c1nc(=O)[nH]c(=O)[nH]1 [CP215] | potency 13.46 µM (inhibitor, single point)
- O=C(O)c1nc(=O)[nH]c(=O)[nH]1 [CP335] | potency 4.256 µM (inhibitor, single point)

From PubChem BioAssay record AID504749 (NCATS, 2011).